These are yes or no findings as the source states them, for the method shown. In cells and extracts the contact can be indirect. A yes stands for co-enrichment or nearness to the bait. Other partners may have been found.

Chains of the proteins cited; added tags and fusions are not shown. Lines headed by an entry give the natural chain unless they say otherwise; changes in a name come on top.
UniProt Q96KE9: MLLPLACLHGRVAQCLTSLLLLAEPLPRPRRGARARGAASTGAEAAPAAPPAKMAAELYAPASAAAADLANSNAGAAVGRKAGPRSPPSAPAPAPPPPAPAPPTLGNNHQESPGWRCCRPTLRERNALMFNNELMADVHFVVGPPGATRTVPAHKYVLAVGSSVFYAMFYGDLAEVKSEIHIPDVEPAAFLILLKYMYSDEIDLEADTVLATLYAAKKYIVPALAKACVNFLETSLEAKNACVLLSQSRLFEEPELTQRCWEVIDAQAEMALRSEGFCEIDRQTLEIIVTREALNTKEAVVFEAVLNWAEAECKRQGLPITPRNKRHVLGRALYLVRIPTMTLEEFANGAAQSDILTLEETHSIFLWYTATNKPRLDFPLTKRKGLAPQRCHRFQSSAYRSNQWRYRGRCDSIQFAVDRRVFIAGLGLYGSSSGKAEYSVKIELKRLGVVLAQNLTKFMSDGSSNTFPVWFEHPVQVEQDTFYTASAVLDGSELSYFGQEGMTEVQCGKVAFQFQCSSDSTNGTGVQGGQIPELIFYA
UniProt Q9P203: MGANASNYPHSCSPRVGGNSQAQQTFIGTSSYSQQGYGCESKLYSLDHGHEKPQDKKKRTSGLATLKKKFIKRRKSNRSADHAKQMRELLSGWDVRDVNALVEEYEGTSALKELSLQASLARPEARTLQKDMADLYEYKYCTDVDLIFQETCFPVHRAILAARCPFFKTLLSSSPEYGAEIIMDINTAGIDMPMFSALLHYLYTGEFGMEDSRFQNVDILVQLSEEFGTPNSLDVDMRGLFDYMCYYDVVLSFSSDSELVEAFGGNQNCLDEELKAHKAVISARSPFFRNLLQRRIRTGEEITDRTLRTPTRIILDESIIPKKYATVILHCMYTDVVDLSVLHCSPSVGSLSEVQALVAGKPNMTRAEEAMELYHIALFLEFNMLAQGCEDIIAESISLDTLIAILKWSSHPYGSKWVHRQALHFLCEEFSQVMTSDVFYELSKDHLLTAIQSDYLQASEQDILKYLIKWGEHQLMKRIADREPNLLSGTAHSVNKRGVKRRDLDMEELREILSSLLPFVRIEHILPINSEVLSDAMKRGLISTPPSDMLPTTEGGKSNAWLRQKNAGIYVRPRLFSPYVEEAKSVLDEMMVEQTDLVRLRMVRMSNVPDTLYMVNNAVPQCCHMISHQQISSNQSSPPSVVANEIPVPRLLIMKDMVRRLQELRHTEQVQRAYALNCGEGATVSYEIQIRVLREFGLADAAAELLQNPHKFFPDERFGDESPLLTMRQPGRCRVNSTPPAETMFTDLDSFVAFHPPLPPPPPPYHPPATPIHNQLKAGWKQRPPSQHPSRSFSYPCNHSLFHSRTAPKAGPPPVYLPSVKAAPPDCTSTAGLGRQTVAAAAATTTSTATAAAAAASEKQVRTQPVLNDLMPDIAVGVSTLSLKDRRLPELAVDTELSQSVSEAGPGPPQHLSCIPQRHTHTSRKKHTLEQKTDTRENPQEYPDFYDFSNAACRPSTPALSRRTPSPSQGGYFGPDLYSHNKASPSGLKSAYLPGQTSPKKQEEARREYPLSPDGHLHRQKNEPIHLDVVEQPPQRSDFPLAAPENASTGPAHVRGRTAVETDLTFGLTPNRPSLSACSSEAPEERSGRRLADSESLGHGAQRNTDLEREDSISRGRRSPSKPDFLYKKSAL
UniProt Q9BSF8: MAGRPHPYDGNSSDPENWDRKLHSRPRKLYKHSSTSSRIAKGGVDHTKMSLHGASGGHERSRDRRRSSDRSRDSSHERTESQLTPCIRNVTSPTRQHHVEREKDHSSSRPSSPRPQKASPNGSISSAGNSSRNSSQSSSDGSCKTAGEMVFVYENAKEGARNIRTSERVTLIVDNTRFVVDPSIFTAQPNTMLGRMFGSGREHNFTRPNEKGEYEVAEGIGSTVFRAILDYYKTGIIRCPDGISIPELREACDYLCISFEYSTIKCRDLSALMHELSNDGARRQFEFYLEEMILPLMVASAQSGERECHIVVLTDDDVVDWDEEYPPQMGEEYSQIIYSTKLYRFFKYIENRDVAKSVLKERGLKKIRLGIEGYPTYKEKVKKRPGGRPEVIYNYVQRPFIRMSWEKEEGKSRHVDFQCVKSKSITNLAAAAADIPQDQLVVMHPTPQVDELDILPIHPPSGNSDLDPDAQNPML
UniProt A6QL63: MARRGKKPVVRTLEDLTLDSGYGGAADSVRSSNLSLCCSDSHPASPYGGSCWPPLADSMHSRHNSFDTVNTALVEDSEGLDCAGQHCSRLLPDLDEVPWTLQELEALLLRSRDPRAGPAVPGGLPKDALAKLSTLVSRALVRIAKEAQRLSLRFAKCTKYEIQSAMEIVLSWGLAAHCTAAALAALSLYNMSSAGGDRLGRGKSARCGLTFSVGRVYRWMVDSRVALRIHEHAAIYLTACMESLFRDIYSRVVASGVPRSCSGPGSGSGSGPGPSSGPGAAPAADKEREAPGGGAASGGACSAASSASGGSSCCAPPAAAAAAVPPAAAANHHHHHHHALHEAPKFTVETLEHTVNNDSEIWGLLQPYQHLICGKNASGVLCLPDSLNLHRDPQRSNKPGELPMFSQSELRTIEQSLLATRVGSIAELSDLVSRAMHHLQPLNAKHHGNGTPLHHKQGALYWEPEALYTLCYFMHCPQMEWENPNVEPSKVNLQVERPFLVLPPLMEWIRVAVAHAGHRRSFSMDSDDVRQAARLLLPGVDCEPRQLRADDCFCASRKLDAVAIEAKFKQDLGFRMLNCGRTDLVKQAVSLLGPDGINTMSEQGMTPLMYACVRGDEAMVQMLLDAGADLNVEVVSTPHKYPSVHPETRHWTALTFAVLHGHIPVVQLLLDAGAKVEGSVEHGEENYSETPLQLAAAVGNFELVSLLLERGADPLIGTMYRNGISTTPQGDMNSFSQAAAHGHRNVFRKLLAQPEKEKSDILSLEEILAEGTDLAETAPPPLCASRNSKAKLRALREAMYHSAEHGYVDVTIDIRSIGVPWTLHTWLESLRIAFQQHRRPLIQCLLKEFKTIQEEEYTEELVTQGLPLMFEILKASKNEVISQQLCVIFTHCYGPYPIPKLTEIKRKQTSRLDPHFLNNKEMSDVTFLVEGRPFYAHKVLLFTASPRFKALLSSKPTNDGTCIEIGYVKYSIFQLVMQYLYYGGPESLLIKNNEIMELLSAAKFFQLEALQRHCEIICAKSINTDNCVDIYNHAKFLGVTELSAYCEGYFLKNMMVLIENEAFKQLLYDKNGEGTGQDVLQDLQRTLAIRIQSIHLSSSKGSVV
UniProt Q86V97: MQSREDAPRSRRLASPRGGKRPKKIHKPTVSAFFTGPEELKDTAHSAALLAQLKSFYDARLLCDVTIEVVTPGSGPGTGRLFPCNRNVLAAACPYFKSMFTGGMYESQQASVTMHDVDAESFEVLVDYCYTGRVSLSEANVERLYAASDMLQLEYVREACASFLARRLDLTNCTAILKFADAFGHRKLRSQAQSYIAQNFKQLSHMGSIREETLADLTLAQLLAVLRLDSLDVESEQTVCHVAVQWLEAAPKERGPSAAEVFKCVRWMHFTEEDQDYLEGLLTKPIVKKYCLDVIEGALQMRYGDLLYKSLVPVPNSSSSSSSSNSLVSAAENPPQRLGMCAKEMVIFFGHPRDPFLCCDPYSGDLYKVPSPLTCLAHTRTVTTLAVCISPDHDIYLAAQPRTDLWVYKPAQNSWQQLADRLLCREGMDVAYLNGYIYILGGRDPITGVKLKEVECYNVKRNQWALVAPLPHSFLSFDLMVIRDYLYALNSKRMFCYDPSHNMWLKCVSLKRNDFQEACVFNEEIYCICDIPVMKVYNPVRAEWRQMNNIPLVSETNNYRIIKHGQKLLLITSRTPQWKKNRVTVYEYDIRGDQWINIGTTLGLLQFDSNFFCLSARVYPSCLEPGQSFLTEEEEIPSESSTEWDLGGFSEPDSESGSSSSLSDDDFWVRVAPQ
UniProt Q9Y597: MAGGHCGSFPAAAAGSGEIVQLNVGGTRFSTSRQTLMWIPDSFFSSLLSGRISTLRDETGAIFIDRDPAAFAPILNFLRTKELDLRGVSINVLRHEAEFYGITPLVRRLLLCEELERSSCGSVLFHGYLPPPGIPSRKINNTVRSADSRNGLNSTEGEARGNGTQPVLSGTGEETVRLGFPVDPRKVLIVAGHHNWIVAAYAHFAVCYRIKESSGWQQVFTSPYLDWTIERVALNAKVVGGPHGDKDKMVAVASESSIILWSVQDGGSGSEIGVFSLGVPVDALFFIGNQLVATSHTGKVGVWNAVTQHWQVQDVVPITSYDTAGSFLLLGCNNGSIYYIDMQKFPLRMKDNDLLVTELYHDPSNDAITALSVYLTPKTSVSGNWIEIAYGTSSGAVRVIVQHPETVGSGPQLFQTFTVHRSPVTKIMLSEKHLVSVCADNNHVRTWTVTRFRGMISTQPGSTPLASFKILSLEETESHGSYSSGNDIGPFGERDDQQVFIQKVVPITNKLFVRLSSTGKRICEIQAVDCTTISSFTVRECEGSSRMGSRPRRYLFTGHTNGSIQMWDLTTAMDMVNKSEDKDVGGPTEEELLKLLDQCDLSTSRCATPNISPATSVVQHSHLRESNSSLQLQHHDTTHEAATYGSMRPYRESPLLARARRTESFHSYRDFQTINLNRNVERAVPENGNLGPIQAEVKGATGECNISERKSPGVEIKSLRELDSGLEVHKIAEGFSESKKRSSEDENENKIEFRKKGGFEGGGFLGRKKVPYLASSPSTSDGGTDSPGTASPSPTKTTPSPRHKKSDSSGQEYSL
UniProt Q6PI47: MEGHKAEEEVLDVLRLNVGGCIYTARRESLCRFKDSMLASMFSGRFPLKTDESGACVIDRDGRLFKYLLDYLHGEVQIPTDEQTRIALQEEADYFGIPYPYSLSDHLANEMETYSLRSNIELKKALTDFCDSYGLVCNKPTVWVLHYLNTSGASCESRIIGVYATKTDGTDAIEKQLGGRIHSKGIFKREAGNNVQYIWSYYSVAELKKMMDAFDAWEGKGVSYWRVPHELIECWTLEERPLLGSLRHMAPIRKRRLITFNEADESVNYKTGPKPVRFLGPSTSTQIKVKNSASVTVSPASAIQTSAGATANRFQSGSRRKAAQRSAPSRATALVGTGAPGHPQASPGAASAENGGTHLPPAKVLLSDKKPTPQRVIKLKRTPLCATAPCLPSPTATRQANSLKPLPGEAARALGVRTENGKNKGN
UniProt Q7Z5Y7: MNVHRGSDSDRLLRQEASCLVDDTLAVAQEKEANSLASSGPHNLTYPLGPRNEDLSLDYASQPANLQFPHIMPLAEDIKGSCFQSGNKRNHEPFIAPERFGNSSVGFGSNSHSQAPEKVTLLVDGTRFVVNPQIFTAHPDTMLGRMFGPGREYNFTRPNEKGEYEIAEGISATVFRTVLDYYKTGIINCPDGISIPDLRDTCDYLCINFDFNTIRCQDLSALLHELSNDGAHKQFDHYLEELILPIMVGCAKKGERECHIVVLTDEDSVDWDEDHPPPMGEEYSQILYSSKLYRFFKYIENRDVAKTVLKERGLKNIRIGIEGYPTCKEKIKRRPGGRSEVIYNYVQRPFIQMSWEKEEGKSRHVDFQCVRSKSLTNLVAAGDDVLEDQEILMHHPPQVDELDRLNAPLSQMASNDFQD
UniProt O95199: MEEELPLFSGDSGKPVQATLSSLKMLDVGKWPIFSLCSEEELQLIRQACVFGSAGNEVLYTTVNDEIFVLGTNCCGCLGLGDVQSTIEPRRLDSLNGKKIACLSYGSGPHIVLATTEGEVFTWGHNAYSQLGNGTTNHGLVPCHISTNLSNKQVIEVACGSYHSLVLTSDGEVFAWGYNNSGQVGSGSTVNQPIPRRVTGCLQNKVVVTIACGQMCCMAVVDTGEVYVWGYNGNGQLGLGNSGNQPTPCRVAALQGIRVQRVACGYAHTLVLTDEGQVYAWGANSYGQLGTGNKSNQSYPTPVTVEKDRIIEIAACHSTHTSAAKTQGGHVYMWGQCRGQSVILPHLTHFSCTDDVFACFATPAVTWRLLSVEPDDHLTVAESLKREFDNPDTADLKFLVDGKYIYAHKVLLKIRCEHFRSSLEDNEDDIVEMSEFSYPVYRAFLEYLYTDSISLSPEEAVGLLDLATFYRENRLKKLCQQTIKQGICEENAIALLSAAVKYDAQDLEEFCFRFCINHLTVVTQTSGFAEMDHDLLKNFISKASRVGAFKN

The target in experiment [1] is PrC-CUL3-WT (human) (UniProt Q13618). Nature of the experiment: affinity purification with mass spectrometry; PrC-CUL3-WT or PrC-CUL3-∆9 precipitated with HPC4-sepharose overnight at 4 °C from lysates of tetracycline-induced Flp-In T-REx 293 cells (50 mM HEPES pH 7.5, 150 mM NaCl, 0.5% Nonidet P-40, 2 mM CaCl2); label-free LC-MS/MS, two independent experiments, empty vector as control.

Experiment [2] addresses PrC-CUL3-∆9 (human) (UniProt Q13618). Described as above.

For the substance BACH2 (from UniProt Q9BYV9 1-841), the binding result in experiment [1] and in experiment [2] was “binds” throughout.

In the case of BTBD6 (from UniProt Q96KE9), the binding result in experiment [1] and in experiment [2] was “binds” throughout.

As to BTBD7 (from UniProt Q9P203 1-1132), the binding entry in experiment [1] and in experiment [2] was “binds” in each case.

Regarding BTBD8 (from UniProt Q5XKL5 1-1792), the binding result in experiment [1] and in experiment [2] was “binds” each time.

Turning to BTBD10 (from UniProt Q9BSF8 1-475), the binding result in experiment [1] and in experiment [2] was “binds” each time.

Take BTBD11 (from UniProt A6QL63 1-1104): the binding entry in experiment [1] and in experiment [2] was “binds” throughout.

Consider KBTBD2 (from UniProt Q8IY47 1-623), for which the binding result in experiment [1] and in experiment [2] was “binds” each time.

As for KBTBD6 (from UniProt Q86V97 1-674), the binding result in experiment [1] and in experiment [2] was “binds” each time.

Regarding KCTD3 (from UniProt Q9Y597 1-815), the binding result in experiment [1] and in experiment [2] was “binds” each time.

Take KCTD18 (from UniProt Q6PI47 1-426): the binding entry in experiment [1] and in experiment [2] was “binds” in each case.

For KCTD20 (from UniProt Q7Z5Y7 1-419), the binding result in experiment [1] and in experiment [2] was “binds” throughout.

In the case of KLHL7 (from UniProt Q8IXQ5 1-586), the binding result in experiment [1] and in experiment [2] was “binds” in each case.

For KLHL17 (from UniProt Q6TDP4 1-642), the binding entry in experiment [1] and in experiment [2] was “binds” in each case.

As to RCBTB2 (from UniProt O95199 1-551), the binding result in experiment [1] and in experiment [2] was “binds” throughout.

For ZBTB7A (from UniProt O95365 1-584), the binding entry in experiment [1] and in experiment [2] was “binds” in each case.

Values taken from publication PMC9105235.
